# Test results reported in PubChem BioAssay AID485314 (National Center for Advancing Translational Sciences (NCATS), 2010).
# Out of some 340,000 compounds screened, about 4,500 (1.3%) were called active. This list was built around the results that the source calls inconclusive (neither active nor inactive); the mix of calls is not that of the screen. Calls come from the whole dose curve; as a rule, active = well fitted inhibition curve with a large enough effect; inconclusive = small, poorly fitted or top-dose-only effect, or another doubt; inactive = no such curve, though single readings can be large or run the other way. A potency beside an inconclusive call is a rough fit, not a confirmed value.
# Target: DNA polymerase beta (Homo sapiens) (UniProt P06746)
# Experiment: qHTS Assay for Inhibitors of DNA Polymerase Beta
# Settings: Pol beta primer extension/strand displacement, fluorescence kinetic; activity change, negative = inhibition: at 114 µM (top of the series)
# In short: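 10 nM enzyme + cpd, 15 min RT; start with substrate 50 nM final; read 0 min and after 10 min RT. Corrected, normalized data; 4-parameter Hill curve fit.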
# % is set by controls: 0 for no effect and ±100 for the full control effect; potency is the fitted concentration of half-maximal effect.
Structure (SMILES),Potency,"activity change, negative = inhibition"
COc1cc(O)c(C(C)=O)c(CC(=O)O)c1,active: 15.8 µM,–
OCC1CCCCN1C(=S)NCc1ccco1 (stereo not given),–,inactive: 81.4%
CCOc1ccc(NC2=NCCC(=O)N2Cc2cccs2)cc1,–,inactive: 1.68%
CCN(c1ccccc1)S(=O)(=O)c1ccc(OC)c(NS(=O)(=O)c2cccs2)c1,"inconclusive: 31.6 µM [inhibitor, partial curve, poor fit]",–
O=C(CN1C(=O)c2ccccc2C1=O)Nc1ccccc1F,"inconclusive: 0.891 µM [inhibitor, full curve, poor fit]",–
CCOC(=O)N1CCN(C2=C(NS(=O)(=O)c3ccc(NC(C)=O)cc3)C(=O)c3ccccc3C2=O)CC1,"inconclusive: 63.1 µM [inhibitor, single point]",–
Cc1ccc(C(=O)N2CCc3cc(CNS(=O)(=O)c4cccs4)ccc32)cc1,–,inactive: 5.97%
CCN(CC)CCCNc1oc(-c2ccc(OC)c(OC)c2)nc1C#N,"inconclusive: 50.1 µM [inhibitor, partial curve]",–
CC(c1ccccc1F)n1cc(C(=O)NCCc2ccco2)nn1 (stereo not given),"inconclusive: 89.1 µM [inhibitor, single point]",–
CSC1=N/C(=C\c2ccc(C)o2)C(=O)S1,"inconclusive: 39.8 µM [inhibitor, partial curve, poor fit]",–
Cc1ccc(-c2cnn(-c3ccccc3)c2N)cc1,–,inactive: 10.4%
COc1cccc(CN2CCNC(=O)C2CC(=O)N(C)C2CCCCC2)c1 (stereo not given),"inconclusive: 10 µM [inhibitor, partial curve]",–
C=CCNC(=O)COC(=O)c1c2c(nc3ccccc13)CCC2,active: 22.4 µM,–
CCN(CC)c1nc2n(c(=S)n1)CCS2,"inconclusive: 1.58 µM [inhibitor, full curve, poor fit]",–
CN(C)CCCN(C(=O)c1ccc([N+](=O)[O-])s1)c1nc2cc3c(cc2s1)OCCO3,"inconclusive: 25.1 µM [inhibitor, full curve]",–
COc1cc(OC)cc(-c2cc3nc(C)c(CCC(=O)NCc4ccccc4)c(C)n3n2)c1,–,inconclusive: -33.2% [inhibitor]
CCN1CCN(Cc2ccc(NC(=O)c3cc(NC(=O)c4cc(-c5ccc(OC)cc5)n[nH]4)cc(OC)c3)cc2C(F)(F)F)CC1,–,inactive: -1.72%
NC(=O)c1c(NC(=O)c2cccnc2)sc2c1CCCCC2,"inconclusive: 89.1 µM [inhibitor, single point]",–
COc1ccc(NC(=O)c2c(NCc3sccc3C)sc3c2CCCC3)c(OC)c1,"inconclusive: 89.1 µM [inhibitor, single point]",–
Cc1cccc(C)c1NC(=S)N(Cc1ccccc1)Cc1cccs1,"inconclusive: 89.1 µM [inhibitor, single point]",–

# Given bar-delimited: three of the compounds above.
Structure (SMILES) | Potency | activity change, negative = inhibition
O=C(CN1C(=O)c2ccccc2C1=O)Nc1ccccc1F | inconclusive: 0.891 µM [inhibitor, full curve, poor fit] | –
Cc1ccc(-c2cnn(-c3ccccc3)c2N)cc1 | – | inactive: 10.4%
Cc1cccc(C)c1NC(=S)N(Cc1ccccc1)Cc1cccs1 | inconclusive: 89.1 µM [inhibitor, single point] | –
